# Reference: the supplement of paper PMC8728848
# The list shows a part of the results.
# Key:
# Assay in all cases: glycan array binding signal (z-score within array); higher = stronger binding
# Conditions in all cases: glycan notation: IUPAC condensed, linker removed
# [1] = target: Gal(b1-4)GlcNAc(b1-2)Man(a1-6)[Man(a1-3)]Man(b1-4)GlcNAc(b1-4)GlcNAc
# How it was run: (§1)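 From the Consortium for Functional Glycomics database, 3228 arrays were curated, keeping only those whose protein sequence was available. Binding is given as a within-array Z-score averaged across arrays sharing a protein sequence and across linkers. Negative Z-scores can be read as non-binding.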
# [2] = target: Gal(b1-4)GlcNAc(b1-2)[Gal(b1-4)GlcNAc(b1-4)]Man(a1-3)[Gal(b1-4)GlcNAc(b1-2)Man(a1-6)]Man(b1-4)GlcNAc(b1-4)GlcNAc
# How it was run: as §1
# [3] = target: Gal(b1-4)GlcNAc(b1-2)[Gal(b1-4)GlcNAc(b1-4)]Man(a1-3)[Gal(b1-4)GlcNAc(b1-2)[Gal(b1-4)GlcNAc(b1-6)]Man(a1-6)]Man(b1-4)GlcNAc(b1-4)GlcNAc
# How it was run: as §1
# [4] = target: Gal(b1-4)GlcNAc(b1-2)[Gal(b1-4)GlcNAc(b1-4)]Man(a1-3)[GlcNAc(b1-4)][Gal(b1-4)GlcNAc(b1-2)Man(a1-6)]Man(b1-4)GlcNAc(b1-4)GlcNAc
# How it was run: as §1
# [5] = target: Gal(b1-4)GlcNAc(b1-2)[Gal(b1-4)GlcNAc(b1-4)]Man(a1-3)[GlcNAc(b1-4)][Gal(b1-4)GlcNAc(b1-2)[Gal(b1-4)GlcNAc(b1-6)]Man(a1-6)]Man(b1-4)GlcNAc(b1-4)GlcNAc
# How it was run: as §1
# [6] = target: Gal(b1-4)GlcNAc(b1-2)[Gal(b1-4)GlcNAc(b1-6)]Man(a1-6)[Gal(b1-4)GlcNAc(b1-2)Man(a1-3)]Man(b1-4)GlcNAc(b1-4)GlcNAc
# How it was run: as §1
# [7] = target: Gal(b1-4)GlcNAc(b1-2)[Gal(b1-4)GlcNAc(b1-6)]Man(a1-6)[Gal(b1-4)GlcNAc(b1-2)Man(a1-3)]Man(b1-4)GlcNAc(b1-4)[Fuc(a1-6)]GlcNAc
# How it was run: as §1
# [8] = target: Gal(b1-4)GlcNAc(b1-2)[Gal(b1-4)GlcNAc(b1-6)]Man(a1-6)[GlcNAc(b1-4)][Gal(b1-4)GlcNAc(b1-2)Man(a1-3)]Man(b1-4)GlcNAc(b1-4)GlcNAc
# How it was run: as §1
# [9] = target: Gal(b1-4)GlcNAc(b1-2)[Gal(b1-4)GlcNAc(b1-6)]Man(a1-6)[GlcNAc(b1-4)][Gal(b1-4)GlcNAc(b1-2)[Gal(b1-4)GlcNAc(b1-4)]Man(a1-3)]Man(b1-4)GlcNAc(b1-4)[Fuc(a1-6)]GlcNAc
# How it was run: as §1
# [10] = target: Gal(b1-4)GlcNAc(b1-3)Gal(b1-3)GalNAc
# How it was run: as §1
# [11] = target: Gal(b1-4)GlcNAc(b1-3)Gal(b1-3)GlcNAc
# How it was run: as §1
# [12] = target: Gal(b1-4)GlcNAc(b1-3)Gal(b1-4)Glc
# How it was run: as §1
# [13] = target: Gal(b1-4)GlcNAc(b1-3)Gal(b1-4)GlcNAc
# How it was run: as §1
# [14] = target: Gal(b1-4)GlcNAc(b1-3)Gal(b1-4)GlcNAc(b1-2)Man(a1-3)[Gal(b1-4)GlcNAc(b1-3)Gal(b1-4)GlcNAc(b1-2)Man(a1-6)]Man(b1-4)GlcNAc(b1-4)GlcNAc
# How it was run: as §1
# [15] = target: Gal(b1-4)GlcNAc(b1-3)Gal(b1-4)GlcNAc(b1-2)Man(a1-3)[Gal(b1-4)GlcNAc(b1-3)Gal(b1-4)GlcNAc(b1-2)Man(a1-6)]Man(b1-4)GlcNAc(b1-4)[Fuc(a1-6)]GlcNAc
# How it was run: as §1
# [16] = target: Gal(b1-4)GlcNAc(b1-3)Gal(b1-4)GlcNAc(b1-2)[Gal(b1-4)GlcNAc(b1-3)Gal(b1-4)GlcNAc(b1-6)]Man(a1-6)[Gal(b1-4)GlcNAc(b1-3)Gal(b1-4)GlcNAc(b1-2)Man(a1-3)]Man(b1-4)GlcNAc(b1-4)GlcNAc
# How it was run: as §1
# [17] = target: Gal(b1-4)GlcNAc(b1-3)Gal(b1-4)GlcNAc(b1-2)[Gal(b1-4)GlcNAc(b1-3)Gal(b1-4)GlcNAc(b1-6)]Man(a1-6)[Gal(b1-4)GlcNAc(b1-3)Gal(b1-4)GlcNAc(b1-2)Man(a1-3)]Man(b1-4)GlcNAc(b1-4)[Fuc(a1-6)]GlcNAc
# How it was run: as §1
# [18] = target: Gal(b1-4)GlcNAc(b1-3)Gal(b1-4)GlcNAc(b1-3)Gal(b1-4)GlcNAc
# How it was run: as §1
# [19] = target: Gal(b1-4)GlcNAc(b1-3)Gal(b1-4)GlcNAc(b1-3)Gal(b1-4)GlcNAc(b1-2)Man(a1-3)[Gal(b1-4)GlcNAc(b1-3)Gal(b1-4)GlcNAc(b1-3)Gal(b1-4)GlcNAc(b1-2)Man(a1-6)]Man(b1-4)GlcNAc(b1-4)GlcNAc
# How it was run: as §1
# [20] = target: Gal(b1-4)GlcNAc(b1-3)Gal(b1-4)GlcNAc(b1-3)Gal(b1-4)GlcNAc(b1-2)Man(a1-3)[Gal(b1-4)GlcNAc(b1-3)Gal(b1-4)GlcNAc(b1-3)Gal(b1-4)GlcNAc(b1-2)Man(a1-6)]Man(b1-4)GlcNAc(b1-4)[Fuc(a1-6)]GlcNAc
# How it was run: as §1
# [21] = target: Gal(b1-4)GlcNAc(b1-3)Gal(b1-4)GlcNAc(b1-3)Gal(b1-4)GlcNAc(b1-2)[Gal(b1-4)GlcNAc(b1-3)Gal(b1-4)GlcNAc(b1-3)Gal(b1-4)GlcNAc(b1-6)]Man(a1-6)[Gal(b1-4)GlcNAc(b1-3)Gal(b1-4)GlcNAc(b1-3)Gal(b1-4)GlcNAc(b1-2)Man(a1-3)]Man(b1-4)GlcNAc(b1-4)[Fuc(a1-6)]GlcNAc
# How it was run: as §1
# [22] = target: Gal(b1-4)GlcNAc(b1-3)Gal(b1-4)GlcNAc(b1-3)Gal(b1-4)GlcNAc(b1-3)Gal(b1-4)GlcNAc(b1-2)Man(a1-3)[Gal(b1-4)GlcNAc(b1-3)Gal(b1-4)GlcNAc(b1-3)Gal(b1-4)GlcNAc(b1-3)Gal(b1-4)GlcNAc(b1-2)Man(a1-6)]Man(b1-4)GlcNAc(b1-4)GlcNAc
# How it was run: as §1
binder,measurement,setting,value
Wzz (Escherichia coli) (protein) MRTWKFPSVRVMMRVENNNVSGQNHDPEQIDLIDLLVQLWRGKMTIIISVIVAIVLAIGYLAVAKEKWTSTAIITQPDVGQIAGYNNAMNVIYGQAAPKVSDLQETLIGRFSSAFSALAETLDNQEEPEKLTIEPSVKNQQLPLTVSYVGQTAEGAQMKLAQYIQQVDDKVNQELEKDLKDNIALGRKNLQDSLRTQEVVAQEQKDLRIRQIQEALQYANQAQVTKPQIQQTGEDITQDTLFLLGSEALESMIKHEATRPLVFSSNYYQTRQNLLDIDNLDVDKLDIHAYLYVMKPTLPIRRDSPKKAITLILAVLLGGMVGAGIVLGRNALRNYNAK,glycan array binding signal (z-score),[1],0.951
same,glycan array binding signal (z-score),[2],0.041
same,glycan array binding signal (z-score),[3],-0.395
same,glycan array binding signal (z-score),[4],0.313
same,glycan array binding signal (z-score),[5],-0.062
same,glycan array binding signal (z-score),[6],-0.211
same,glycan array binding signal (z-score),[7],-0.247
same,glycan array binding signal (z-score),[8],0.477
same,glycan array binding signal (z-score),[9],-0.749
same,glycan array binding signal (z-score),[10],-0.721
same,glycan array binding signal (z-score),[11],-0.29
same,glycan array binding signal (z-score),[12],-0.169
same,glycan array binding signal (z-score),[13],-0.383
same,glycan array binding signal (z-score),[14],-0.619
same,glycan array binding signal (z-score),[15],0.185
same,glycan array binding signal (z-score),[16],0.188
same,glycan array binding signal (z-score),[17],-0.048
same,glycan array binding signal (z-score),[18],-0.557
same,glycan array binding signal (z-score),[19],-0.025
same,glycan array binding signal (z-score),[20],-0.214
same,glycan array binding signal (z-score),[21],-0.404
same,glycan array binding signal (z-score),[22],-0.218

# In a second layout: results already given.
binder	measurement	setting	value
Wzz (Escherichia coli) (protein) MRTWKFPSVRVMMRVENNNVSGQNHDPEQIDLIDLLVQLWRGKMTIIISVIVAIVLAIGYLAVAKEKWTSTAIITQPDVGQIAGYNNAMNVIYGQAAPKVSDLQETLIGRFSSAFSALAETLDNQEEPEKLTIEPSVKNQQLPLTVSYVGQTAEGAQMKLAQYIQQVDDKVNQELEKDLKDNIALGRKNLQDSLRTQEVVAQEQKDLRIRQIQEALQYANQAQVTKPQIQQTGEDITQDTLFLLGSEALESMIKHEATRPLVFSSNYYQTRQNLLDIDNLDVDKLDIHAYLYVMKPTLPIRRDSPKKAITLILAVLLGGMVGAGIVLGRNALRNYNAK	glycan array binding signal (z-score)	[3]	-0.395
same	glycan array binding signal (z-score)	[7]	-0.247
